According to patent US20090258878A1, “TRIAZINE DERIVATIVE COMPOUND AND COMPOSITION FOR TREATING CANCER […]” (priority 2006, published 2009):

Tested on: MCF-7 tumor cells
Conditions: nude mouse
Protocol: Weekly administration of experiment compound was initiated 2 days after measurement of tumor size. The concentration of the first administration was 500 μM, respectively.

[1] = 1 week after First Administration, 500 μM
[2] = 1 day before First Administration
[3] = the day of First Administration, 500 μM

SMILES | Weight [1] | Weight [2] | Weight [3]
C=CCNc1nc(NCCCC)nc(NCc2ccc(C(=O)NCCOCCOCCNC(=O)c3ccccc3)cc2)n1 [Dan-BC1] | 19.5 g | 18.5 g | 21.2 g
CCCCNc1nc(NCc2ccncc2)nc(NCc2ccc(C(=O)NCCOCCOCCNC(=O)c3ccccc3)cc2)n1 [Dan-BC2] | 20.5 g | 19.5 g | 21.2 g
CCCCNc1nc(NCc2ccc(C(=O)NCCOCCOCCNC(=O)c3ccccc3)cc2)nc(NC(CC)CC)n1 [Dan-BC3] | 20.5 g | 19.5 g | 21.2 g

Read-outs that look alike come from different tables or passages of the source.
